Test results reported in PubChem BioAssay AID2685 (National Center for Advancing Translational Sciences (NCATS), 2010).
The other results are listed elsewhere or left out. Further columns of the screen follow, without active or inactive calls. Most of these compounds were active or inconclusive in the main read-out, so they are no random draw. Potencies come from curve fits of mixed quality, noted in brackets.

Assay: qHTS Assay for Lipid Storage Modulators in Drosophila S3 Cells;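 for cell number change: cells counted by Cell Tracker Red CMTPX staining in the red channel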
Conditions: BODIPY lipid droplet fluorescence, 18-24 h; for cell number change: measured here: cell count max response, cells fed with added oleic acid
How it was run: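 Drosophila S3 cells loaded with oleic acid (400 uM, as added) and compounds at several concentrations; lipid droplets imaged by 488-nm laser-scanning cytometry, 500–530 nm intensity and object ratio to cell channel. Percent activity normalized to 20 uM Triacsin C.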

[1] = measured here: cell number channel AC50, cells fed with added oleic acid
[2] = measured here: lipid fluorescence (Fed channel) AC50, cells fed with added oleic acid

| Structure (SMILES) | cell number change | AC50 [1] | AC50 [2] |
| --- | --- | --- | --- |
| O=C(CSc1nc2nc(-c3cccs3)cc(C(F)(F)F)c2c(=O)[nH]1)Nc1c(F)c(F)c(F)c(F)c1F | 34% | 13 µM [rising, partial curve, poor fit] | – |
| O=C(c1cccc([N+](=O)[O-])c1)c1ccc2c(c1)C(=O)NC2=O | -14.2% | 0.651 µM [falling, full curve, poor fit] | – |
| CCC(C)[C@H](NC(=O)N1CC(=O)Nc2ccccc21)C(=O)N[C@H](Cc1c[nH]c2ccccc12)C(=O)O (stereo partly drawn) | -11.7% | – | – |
| O=Cc1ccc(OC(=O)c2cccnc2)cc1 | -1.23% | 6.51 µM [falling, single point] | – |
| CN(Cc1ccccc1)C(=O)c1ccccc1-c1ccccc1 | -45.6% | 0.0058 µM [falling, full curve, poor fit] | – |
| CCCCn1c(=O)[nH]c(=O)c2c1nc(CN1C(=O)c3ccccc3S1(=O)=O)n2CCC | -11.8% | – | 4.61 µM [rising, full curve] |
| CC1Cc2ccccc2N1S(=O)(=O)c1cccc(C(=O)NC2CC2)c1 (stereo not drawn) | 55.6% | 23.1 µM [rising, partial curve, poor fit] | 11.6 µM [rising, partial curve] |
| N#CC1(NC(=O)COC(=O)CSc2ccc(F)cc2)CCCCC1 | -50% | 0.116 µM [falling, full curve, poor fit] | – |
| Nc1ncc(CN2CCCC(C(=O)Nc3ccc(-c4ccco4)cc3)C2)cn1 (stereo not drawn) | 13% | – | 23.1 µM [rising, single point] |
| COc1cccc(OCC(O)CN2CCc3ccccc3C2)c1 (stereo not drawn) | 54.6% | 29.1 µM [rising, single point] | 29.1 µM [rising, single point] |
| O=c1c2c([N+](=O)[O-])cc([N+](=O)[O-])cc2sn1-c1ccc(Br)cc1 | -39.1% | 13 µM [falling, partial curve, poor fit] | 18.4 µM [falling, partial curve] |
| COc1ccc(-c2nc(SC)n(C(=O)c3ccco3)n2)cc1 | -48.7% | – | – |
| CCCSc1nnc(NC(=O)Nc2ccc(F)cc2)s1 | -214% | 18.4 µM [falling, partial curve] | – |
| COc1cc(NC(=S)N2CCN(S(=O)(=O)c3ccccc3)CC2)cc(OC)c1 | 10.4% | – | – |
| O=C(N/C(=C\c1ccc(Cl)cc1)C(=O)N1CCOCC1)c1ccc([N+](=O)[O-])cc1 | -6.76% | – | 5.8 µM [falling, single point] |
| Cc1ccccc1CSc1ccc2nnc(-c3ccccn3)n2n1 | -22% | 1.16 µM [falling, single point] | 0.58 µM [rising, single point] |
| COc1ccc(N=C2NC(=O)C(CC(=O)NCCc3ccc(OC)c(OC)c3)S2)cc1 (stereo not drawn) | -21.4% | – | 2.06 µM [falling, partial curve, poor fit] |

| Structure (SMILES) | cell number change | AC50 [1] | AC50 [2] |
| --- | --- | --- | --- |
| CC(C)OC(=O)COc1ccc(-c2ccccc2)cc1 | – | 6.51 µM [falling, single point] | – |
| Cn1c(SCC(=O)N2CCOCC2)nnc1-c1ccc(Cl)cc1Cl | 34.3% | 20.6 µM [rising, partial curve, poor fit] | 29.1 µM [rising, single point] |
| COc1ccc(CCNC(=O)CCCn2nc(C)n3ccnc3c2=O)cc1OC | 18.9% | – | 6.51 µM [falling, single point] |
| CCOC(=O)c1nn(-c2ccc3c(c2)OCCO3)cc1O | 40.2% | 16.4 µM [rising, single point] | 23.1 µM [rising, single point] |
| Cn1ncc(Cl)c1C(=O)Nc1nc2ccc(Cl)cc2s1 | -11.4% | – | 23.1 µM [rising, partial curve, poor fit] |
| CCCCCCC1CC(/C(C)=N\NC(N)=O)OC1=O (stereo not drawn) | – | – | 0.0146 µM [rising, full curve, poor fit] |
| Cn1nnnc1SCc1nnc(-c2ccc(Cl)cc2)o1 | -24.1% | 0.164 µM [falling, full curve, poor fit] | 0.082 µM [rising, full curve, poor fit] |
| Cc1ccc(S(=O)(=O)NCCC(=O)Nc2ccc(Cl)c(Cl)c2)cc1 | -3.86% | 0.82 µM [falling, single point] | – |
| CCc1nc(SCC(=O)Nc2ccc(N(C)C)cc2)n[nH]1 | -11.8% | – | 29.1 µM [falling, single point] |
| NC1(C#Cc2ccc3oc(=O)c(-n4cc(-c5ccsc5)nn4)cc3c2)CCCCC1 | -67.1% | 25.9 µM [falling, single point] | 29.1 µM [falling, partial curve, poor fit] |
| CCOC(=O)C1CCN(C(=O)Cc2c(C(=O)O)n(CC)c3ccccc23)CC1 | -9.35% | 0.164 µM [falling, full curve, poor fit] | 1.46 µM [falling, partial curve] |
| O=C(COc1ccc(S(=O)(=O)N2CCOCC2)cc1Cl)N1CCCC1 | 7.26% | – | 29.1 µM [falling, partial curve, poor fit] |
| Cc1ccc(S(=O)(=O)N(CC(=O)N2CCOCC2)c2ccc(C(C)C)cc2)cc1 | -0.289% | – | 0.092 µM [falling, full curve, poor fit] |
| Cc1ccc(/C=N/Nc2ccc3c(C(F)(F)F)cc(C(F)(F)F)nc3n2)cc1 | -38.7% | 16.4 µM [falling, partial curve, poor fit] | 11.6 µM [falling, partial curve, poor fit] |
| Cc1cccc(OCCC(=O)NCC(c2ccccc2)N(C)C)c1 (stereo not drawn) | -52.7% | 29.1 µM [falling, single point] | 29.1 µM [falling, partial curve, poor fit] |
| Cc1ccccc1Cn1nnc(C(=O)Nc2cccc(C)c2C)c1N | 11.2% | 0.82 µM [rising, full curve, poor fit] | 0.651 µM [rising, partial curve, poor fit] |

An excerpt from above in order of formula weight, rising:

| Structure (SMILES) | cell number change | AC50 [1] | AC50 [2] |
| --- | --- | --- | --- |
| CCCCCCC1CC(/C(C)=N\NC(N)=O)OC1=O (stereo not drawn) | – | – | 0.0146 µM [rising, full curve, poor fit] |
| N#CC1(NC(=O)COC(=O)CSc2ccc(F)cc2)CCCCC1 | -50% | 0.116 µM [falling, full curve, poor fit] | – |
| Cc1ccc(S(=O)(=O)NCCC(=O)Nc2ccc(Cl)c(Cl)c2)cc1 | -3.86% | 0.82 µM [falling, single point] | – |
